# Measured values from the supplement of paper PMC4862054.
# Most values lie at the level of the controls, where differences are scatter.
# What was measured:
# Assay in all cases: normalised response (% of control), CellTox Green; higher = less cell death (100 = DMSO, 0 = benzethonium chloride kill control)
# Settings in all cases: incubation time: 72 h
# MDA-MB-453 [1] = test system: MDA-MB-453
# Protocol: (§1)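 DSRT, 72 h incubation, CellTox Green / CellTiter-Glo readout. Signal is normalised to DMSO and benzethonium chloride controls. Value is the normalised response at dose 2.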
# HDQ-P1 = test system: HDQ-P1
# Protocol: as §1
# BT-549 [2] = test system: BT-549
# Protocol: as §1
# CAL-51 [3] = test system: CAL-51
# Protocol: as §1
# MDA-MB-468 [4] = test system: MDA-MB-468
# Protocol: as §1
# CAL-148 [5] = test system: CAL-148
# Protocol: as §1
# BT-474 [6] = test system: BT-474
# Protocol: as §1
# MDA-MB-231 [7] = test system: MDA-MB-231
# Protocol: as §1
# Hs578T [8] = test system: Hs578T
# Protocol: as §1
# CAL-85-1 [9] = test system: CAL-85-1
# Protocol: as §1
# CAL-120 [10] = test system: CAL-120
# Protocol: as §1
# MFM-223 [11] = test system: MFM-223
# Protocol: as §1
# HCC1599 [12] = test system: HCC1599
# Protocol: as §1
# MDA-MB-436 [13] = test system: MDA-MB-436
# Protocol: as §1
# MCF-10A [14] = test system: MCF-10A
# Protocol: as §1
# DU-4475 [15] = test system: DU-4475
# Protocol: as §1
# HCC1937 [16] = test system: HCC1937
# Protocol: as §1
# HCC1143 = test system: HCC1143
# Protocol: as §1
# MDA-MB-453 [17] = test system: MDA-MB-453; remark: listed apart in the source
# Protocol: (§2)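 DSRT, 72 h incubation, CellTox Green / CellTiter-Glo readout. Signal is normalised to DMSO and benzethonium chloride controls. Value is the normalised response at the lowest tested concentration.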
# BT-549 [18] = test system: BT-549; remark: listed apart in the source
# Protocol: as §2
# HCC1937 [19] = test system: HCC1937; remark: listed apart in the source
# Protocol: as §2
# CAL-51 [20] = test system: CAL-51; remark: listed apart in the source
# Protocol: as §2
# MDA-MB-468 [21] = test system: MDA-MB-468; remark: listed apart in the source
# Protocol: as §2
# CAL-148 [22] = test system: CAL-148; remark: listed apart in the source
# Protocol: as §2
# BT-474 [23] = test system: BT-474; remark: listed apart in the source
# Protocol: as §2
# MDA-MB-231 [24] = test system: MDA-MB-231; remark: listed apart in the source
# Protocol: as §2
# Hs578T [25] = test system: Hs578T; remark: listed apart in the source
# Protocol: as §2
# CAL-85-1 [26] = test system: CAL-85-1; remark: listed apart in the source
# Protocol: as §2
# CAL-120 [27] = test system: CAL-120; remark: listed apart in the source
# Protocol: as §2
# MFM-223 [28] = test system: MFM-223; remark: listed apart in the source
# Protocol: as §2
# HCC1599 [29] = test system: HCC1599; remark: listed apart in the source
# Protocol: as §2
# MDA-MB-436 [30] = test system: MDA-MB-436; remark: listed apart in the source
# Protocol: as §2
# MCF-10A [31] = test system: MCF-10A; remark: listed apart in the source
# Protocol: as §2
# DU-4475 [32] = test system: DU-4475; remark: listed apart in the source
# Protocol: as §2
Compound,normalised response (MDA-MB-453 [1]) [%],normalised response (HDQ-P1) [%],normalised response (BT-549 [2]) [%],normalised response (CAL-51 [3]) [%],normalised response (MDA-MB-468 [4]) [%],normalised response (CAL-148 [5]) [%],normalised response (BT-474 [6]) [%],normalised response (MDA-MB-231 [7]) [%],normalised response (Hs578T [8]) [%],normalised response (CAL-85-1 [9]) [%],normalised response (CAL-120 [10]) [%],normalised response (MFM-223 [11]) [%],normalised response (HCC1599 [12]) [%],normalised response (MDA-MB-436 [13]) [%],normalised response (MCF-10A [14]) [%],normalised response (DU-4475 [15]) [%],normalised response (HCC1937 [16]) [%],normalised response (HCC1143) [%],normalised response (MDA-MB-453 [17]) [%],normalised response (BT-549 [18]) [%],normalised response (HCC1937 [19]) [%],normalised response (CAL-51 [20]) [%],normalised response (MDA-MB-468 [21]) [%],normalised response (CAL-148 [22]) [%],normalised response (BT-474 [23]) [%],normalised response (MDA-MB-231 [24]) [%],normalised response (Hs578T [25]) [%],normalised response (CAL-85-1 [26]) [%],normalised response (CAL-120 [27]) [%],normalised response (MFM-223 [28]) [%],normalised response (HCC1599 [29]) [%],normalised response (MDA-MB-436 [30]) [%],normalised response (MCF-10A [31]) [%],normalised response (DU-4475 [32]) [%]
Nc1nc(OCc2cc(Br)cs2)c2[nH]cnc2n1 [Lomeguatrib] (10 nM),96.5,106,104,89.1,81,99.8,82.3,103,87,101,99.4,101,95.3,97.8,95.8,95.8,–,–,–,–,–,–,–,–,–,–,–,–,–,–,–,–,–,–
CC(C)C(=O)Nc1ccc([N+](=O)[O-])c(C(F)(F)F)c1 [Flutamide] (1 nM),–,–,–,–,–,–,–,–,–,–,–,–,–,–,–,–,–,–,106,101,112,110,97.4,98.5,98.1,105,105,105,96.5,101,97.3,82.1,102,99.3
CC1=C2C[C@H]3[C@@H](CC=C4C[C@@H](O)CC[C@@]43C)[C@@H]2CC[C@]12O[C@@H]1C[C@H](C)CN[C@H]1[C@H]2C [Cyclopamine] (10 nM),103,77.2,93.4,102,–,106,100,100,–,96.9,103,95.8,77.3,99.5,110,113,73.7,112,–,–,–,–,–,–,–,–,–,–,–,–,–,–,–,–
Oc1ccc2c(c1)CC[C@H](c1ccccc1)[C@@H]2c1ccc(OCCN2CCCC2)cc1 [Lasofoxifene] (1 nM),110,124,98.1,112,71.8,109,105,113,–,103,103,103,126,117,120,118,102,114,–,–,–,–,–,–,–,–,–,–,–,–,–,–,–,–
CC(C)(C)c1cc(NC(=O)Nc2ccc(-c3cn4c(n3)sc3cc(OCCN5CCOCC5)ccc34)cc2)no1 [Quizartinib] (1 nM),107,–,105,104,89.3,104,101,101,120,100,103,101,104,104,114,110,–,120,–,–,–,–,–,–,–,–,–,–,–,–,–,–,–,–
Cc1ccc(C(=O)N(CCCN)[C@@H](c2oc3cc(Cl)ccc3c(=O)c2Cc2ccccc2)C(C)C)cc1 (0.01 nM),–,–,–,–,–,–,–,–,–,–,–,–,–,–,–,–,–,–,94.1,90.6,96.4,81.2,64.5,95.9,99.1,103,96.6,90.3,100,90.4,104,88.7,106,101
